According to patent US7785849B2, “Cyclic nucleotide-specific phosphodiesterases from Leishmania and uses thereof” (priority 2003, dated 2010):
For at least one compound, name, drawing or mass did not settle the structure.

Protein sequences, listed by entry. Tags and fused reporters are not part of them.
UniProt Q6S997, entry or part of it: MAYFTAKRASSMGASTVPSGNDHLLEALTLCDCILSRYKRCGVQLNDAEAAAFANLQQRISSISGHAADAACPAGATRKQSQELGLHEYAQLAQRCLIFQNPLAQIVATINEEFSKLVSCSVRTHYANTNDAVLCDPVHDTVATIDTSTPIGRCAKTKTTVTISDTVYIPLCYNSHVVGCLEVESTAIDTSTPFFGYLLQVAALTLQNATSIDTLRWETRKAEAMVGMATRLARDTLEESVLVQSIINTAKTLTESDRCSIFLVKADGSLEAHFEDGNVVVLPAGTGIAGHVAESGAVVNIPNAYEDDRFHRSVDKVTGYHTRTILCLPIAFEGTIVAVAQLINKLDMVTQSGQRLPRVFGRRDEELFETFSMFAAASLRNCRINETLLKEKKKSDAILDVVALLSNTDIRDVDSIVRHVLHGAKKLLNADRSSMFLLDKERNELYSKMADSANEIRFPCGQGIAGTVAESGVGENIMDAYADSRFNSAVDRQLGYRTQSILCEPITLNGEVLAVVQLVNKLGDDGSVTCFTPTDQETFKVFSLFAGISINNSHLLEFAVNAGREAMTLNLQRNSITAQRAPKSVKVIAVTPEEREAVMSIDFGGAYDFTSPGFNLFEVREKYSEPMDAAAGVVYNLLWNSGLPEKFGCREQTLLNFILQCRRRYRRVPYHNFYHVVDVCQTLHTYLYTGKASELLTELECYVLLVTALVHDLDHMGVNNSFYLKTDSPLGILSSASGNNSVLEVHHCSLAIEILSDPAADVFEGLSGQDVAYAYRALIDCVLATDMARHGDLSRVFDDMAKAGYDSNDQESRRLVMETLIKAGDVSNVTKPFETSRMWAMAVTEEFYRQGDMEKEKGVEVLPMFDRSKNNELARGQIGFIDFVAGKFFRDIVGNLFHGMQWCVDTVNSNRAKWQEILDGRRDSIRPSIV

What was measured:
LmPDE-B2 = assay: PDE activity assay in yeast lysates, recombinant LmPDE-B2 (3H-cAMP hydrolysis); assay type: biochemical, Leishmania major; settings: 100 μM inhibitor, 1 μM cAMP
Protocol: (§1) PP5 yeast cells expressing LmPDE-A, LmPDE-B1, and LmPDE-B2, were lysed as described previously (Zoraghi et al. (2001) J. Biol. Chem. 276, 11559-11566). The cells were grown to mid-log to end-log phase in SC-leu medium, collected, resuspended in the original volume of prewarmed YPD medium, and incubated for an additional 3.5 hours at 30° C. to maximize protein expression. The cells were then harvested, washed twice in H2O, pelleted by centrifugation, and stored overnight at −70° C. The cell pellet was thawed on ice and resuspended in ice-cold extraction buffer (50 mM Hepes pH 7.5, 100 mM NaCl, 1× Complete® protease inhibitor cocktail without EDTA (Roche)). Cells were lysed by grinding with glass beads (0.45-0.50 mm) in 2 ml Sarstedt tubes using a FastPrep FP120 cell disrupter (3×45 seconds at setting 4). The lysed cells were centrifuged and glycerol was added to the resulting supernatant to a final concentration of 15% (v/v). Aliquots were snap-frozen in liquid nitrogen and were stored at −70° C.
(§2) PDE activity was determined in 50 mM HEPES, pH 7.5, 0.5 mM EDTA, 10 mM MgCl2, and 50 mg/ml BSA in a final assay volume of 100 μl. Each assay contained 50,000 cpm of ^3H-labeled cAMP, with unlabeled cAMP added to adjust the desired total substrate concentration. […] Assays were performed in triplicate, and data were analyzed using the Graph Pad Prism software package.

LmPDE-B1 = LmPDE-B1 (Leishmania major, UniProt Q6S997); assay: PDE activity assay in yeast lysates, recombinant LmPDE-B1 (3H-cAMP hydrolysis); assay type: biochemical
Protocol: as §1, §2

Row | SMILES | sensitivity of LmPDE-B2 activity to PDE inhibitor (LmPDE-B2) | sensitivity of LmPDE-B1 activity to PDE inhibitor (LmPDE-B1; 100 μM inhibitor, 1 μM cAMP) | effect on KM (nor Kcat) of cAMP hydrolysis by LmPDE-B1 (LmPDE-B1; 50-fold excess of 5′-AMP)
1 | CCOC(=O)c1cnc2c(cnn2CC)c1NN=C(C)C [etazolate] | partly sensitive | partly sensitive | –
2 | Nc1ncnc2c1ncn2[C@@H]1O[C@H](COP(=O)(O)O)[C@@H](O)[C@H]1O [5′-AMP] | – | – | no effect
